Assay results as given in PubChem BioAssay AID540276 (National Center for Advancing Translational Sciences (NCATS), 2011).
The campaign covered roughly 300,000 compounds. About 5,400 (1.8%) were called active. Inconclusive results, whose numbers are uncertain, are shown with a selection of clear calls. Calls follow the shape of the full dose curve; tested in HEK293 cells. Potencies of inconclusive entries are doubtful fits and often do not repeat.

Assay: qHTS for inhibitors of binding or entry into cells for Marburg Virus
Details: Marburg virus pseudotyped entry inhibition, cell reporter; series mostly up to 37.8 µM
Potency is read from the fitted curve at half-maximal effect.

Row | SMILES | Potency
1 | Fc1ccc(Sc2nc(-c3ccccc3)nnc2C(F)(F)F)cc1 | inconclusive: 11.2 µM [inhibitor, partial curve, poor fit]
2 | COC(=O)c1ccc(CN(C(C)=O)c2ccccc2)o1 | inactive
3 | CCCCOc1ccc(C(=O)NCC(=O)N(C)CC(=O)Nc2ccc(N3CCOCC3)cc2)cc1 | inconclusive: 35.5 µM [inhibitor, partial curve, poor fit]
4 | COC(=O)CCCC(=O)N(C)CC1CCCN(CCc2ccccc2C)C1 (stereo unspecified) | inactive
5 | Cc1cccc(N2CCN(CCNC(=O)c3cc4c(s3)CS(=O)(=O)C4)CC2)c1C | inconclusive: 7.3 µM [inhibitor, partial curve, poor fit]
6 | COCCn1c(=O)[nH]c(=O)c2c1nc(-c1ccc(-c3ccc(Cl)cc3[N+](=O)[O-])o1)n2Cc1ccccc1 | inconclusive: 17.8 µM [inhibitor, single point]
7 | COc1ccccc1N1CCN(CCNC(=O)Nc2cccc(C)c2C)CC1 | inconclusive: 22.4 µM [inhibitor, single point]
8 | Cc1ccc(S(=O)(=O)N(C)C)cc1NC(=S)N1CCc2ccccc21 | inconclusive: 15.8 µM [inhibitor, partial curve, poor fit]
9 | COc1cc(/C=N/n2c(-c3ccccc3)n[nH]c2=S)cc(OC)c1OC | inconclusive: 35.5 µM [inhibitor, single point]
10 | Nc1nonc1C(=O)NCCNC(=O)c1ccccc1F | inconclusive: 35.5 µM [activator, single point]
11 | CN1C/C(=N\S(=O)(=O)c2ccccc2)N(C)C1=O | inconclusive: 0.1 µM [activator, full curve, poor fit]
12 | CCSC(=O)CCCCCCCCCCCO | inactive
13 | Cc1ccc(NC(=O)C(C)N=C2NS(=O)(=O)c3ccccc32)cc1F (stereo unspecified) | inactive
14 | O=C(Cc1ccccc1F)Nc1nc(-c2cccs2)cs1 | inconclusive: 15.8 µM [inhibitor, single point]
15 | CCN(CC)S(=O)(=O)c1ccc(C)c(NC(=O)CSc2nc3ccc(C)cc3[nH]2)c1 | inconclusive: 35.5 µM [inhibitor, single point]
16 | Cc1ccc(C(=O)O[C@H](C(=O)O)[C@H](OC(=O)c2ccc(C)cc2)C(=O)O)cc1 | inactive
17 | O=C(COC(=O)Cc1ccccc1F)Nc1ccc(SC(F)F)cc1 | inconclusive: 3.98 µM [inhibitor, partial curve, poor fit]
18 | CCOCCCN(C)C1CCN(C(=O)c2oc3ccccc3c2NC(=O)c2cccc([N+](=O)[O-])c2)CC1 | inconclusive: 17.8 µM [inhibitor, single point]
19 | c1ccc(C2NCCc3ccccc32)cc1 (stereo unspecified) | inconclusive: 8.91 µM [inhibitor, partial curve, poor fit]
20 | NNc1nc(-c2ccccc2)cs1 | inconclusive: 0.631 µM [inhibitor, full curve, poor fit]
21 | CCc1sc(C(C2C(=O)CC(C)(C)CC2=O)C2C(=O)CC(C)(C)CC2=O)cc1[N+](=O)[O-] | inconclusive: 35.5 µM [inhibitor, single point]
22 | COc1ccc(Cl)cc1NC(=O)Nc1cccc([N+](=O)[O-])c1C | inconclusive: 22.4 µM [inhibitor, single point]
23 | CN(CCNC(=O)c1cccc(N2CCCC2=O)c1)Cc1ccccc1 | inconclusive: 39.8 µM [inhibitor, partial curve, poor fit]
24 | CCOc1ccc(N2CC(C)Cn3c2nc2c3c(=O)n(CC(=O)O)c(=O)n2C)cc1 (stereo unspecified) | inactive

Row | SMILES | Potency
25 | COCCNC(=O)Cn1nc(-c2ccc(C)cc2)ccc1=O | inactive
26 | COc1cc(NC(=O)c2noc3c2CCC3)c(OC)cc1Cl | inactive
27 | Cc1cccc(/N=C/c2c(O)c3ccccc3oc2=O)n1 | inconclusive: 3.98 µM [inhibitor, partial curve, poor fit]
28 | Cc1ccc(C(=O)Nc2cccc(NC(=O)c3ccc(C)cc3)n2)cc1 | inactive
29 | N/C(Cc1ccc([N+](=O)[O-])cc1)=N\OC(=O)Cc1ccc(Cl)cc1 | inconclusive: 0.316 µM [inhibitor, partial curve, poor fit]
30 | COc1ccc2nc(N/C(N)=N/C(=S)Nc3cccc(C)c3)nc(C)c2c1 | inconclusive: 22.4 µM [inhibitor, single point]
31 | Cc1ccc(CNC(=O)c2cc3c(s2)CN(Cc2ccccc2)C3)cc1 | inconclusive: 2.51 µM [activator, single point]
32 | Cc1cc(C)c2c(c1)/C(=N/NC(=O)c1ccc(O)cc1)CCC2 | inconclusive: 1.26 µM [inhibitor, partial curve, poor fit]
33 | Cc1cc2n(n1)C(c1ccc(O)cc1)Nc1ccccc1-2 (stereo unspecified) | inactive
34 | COc1ccc(/C=N/n2c(SC)nnc(C(C)(C)C)c2=O)c(OC)c1 | inactive
35 | CNc1ncnc2c1ncn2[C@@H]1O[C@H](CO)[C@H](O)[C@H]1O | inconclusive: 6.31 µM [inhibitor, partial curve, poor fit]
36 | Cc1ccc(Cl)cc1N1CCN(Cc2nnnn2Cc2ccco2)CC1 | inactive
37 | O=C(COC(=O)C1CC1)Nc1ncc(C(F)(F)F)cc1Cl | inactive
38 | CN(C(=O)c1cccc(C(F)(F)F)c1)C1CCCc2ccccc21 (stereo unspecified) | inconclusive: 28.2 µM [inhibitor, partial curve, poor fit]
39 | Clc1ccc(-c2noc(CN3CCCC3)n2)cc1 | inconclusive: 0.501 µM [activator, full curve, poor fit]
40 | Cc1cc(O)c(NC(=O)c2ccc(Br)o2)cc1C | inactive
41 | CCOc1ccccc1N(C)S(=O)(=O)c1ccc2c(c1)CC(C)N2C(=O)C1CC1 (stereo unspecified) | inconclusive: 11.2 µM [inhibitor, partial curve, poor fit]
42 | CN(C(=O)CSc1nc2ccc(NC(=O)c3ccccc3F)cc2s1)c1ccccc1 | inconclusive: 8.91 µM [inhibitor, partial curve, poor fit]
43 | Fc1ccc(Nc2nc(N3CCOCC3)nc(N3CCOCC3)n2)cc1 | active: 7.08 µM
44 | NS(=O)(=O)c1ccc(NC(=O)c2ccccc2Cl)cc1 | inconclusive: 23.1 µM [activator, single point]
45 | O=C(CN1C(=O)c2ccccc2S1(=O)=O)N1CCc2ccccc21 | inconclusive: 0.461 µM [inhibitor, full curve, poor fit]
46 | O=C(COC(=O)c1cccnc1Cl)Nc1cc(S(=O)(=O)N2CCCCCC2)ccc1Cl | inactive
47 | CC(C)(C)OC(=O)NCCCCCc1nnc(SCc2ccc(F)cc2)o1 | inconclusive: 14.1 µM [inhibitor, single point]
48 | CCOC(=O)c1cc(S(=O)(=O)NC2CCN(C(=O)OCC)CC2)cn1C | inactive

Among those listed so far, these have a COOH group.
Row | SMILES | Potency
16 | Cc1ccc(C(=O)O[C@H](C(=O)O)[C@H](OC(=O)c2ccc(C)cc2)C(=O)O)cc1 | inactive
24 | CCOc1ccc(N2CC(C)Cn3c2nc2c3c(=O)n(CC(=O)O)c(=O)n2C)cc1 (stereo unspecified) | inactive

Later entries

Row | SMILES | Potency
49 | COC(=O)c1cc(NC(=S)N2CCN(c3ccccn3)CC2)cc(C(=O)OC)c1 | inconclusive: 14.1 µM [inhibitor, partial curve, poor fit]
50 | O=C1CC(N2CCC(Cc3ccccc3)CC2)C(=O)N1CCc1ccccc1 (stereo unspecified) | inactive
51 | CCC(C(=O)OCC(=O)Nc1ccc(F)cc1)c1ccccc1 (stereo unspecified) | inactive
52 | CN(C)S(=O)(=O)c1ccc(NC(=O)c2cc(-c3cccs3)nc3ccccc23)cc1 | inconclusive: 2 µM [inhibitor, full curve, poor fit]
53 | N#Cc1c(NC(=O)c2nc3ncccn3n2)sc2c1CCCCC2 | inconclusive: 1 µM [activator, partial curve, poor fit]
54 | Nn1c(SCc2cccc3ccccc23)nnc1-c1ccco1 | inactive
55 | O=C(CN1C(=O)NC2(CCCC2)C1=O)Nc1nc(-c2ccccc2)cs1 | inactive
56 | O=C(N/C(=C\c1cccc([N+](=O)[O-])c1)C(=O)N(CCO)CCO)c1ccco1 | inactive
57 | O=C(CCc1nnc(-c2ccc3c(c2)OCO3)o1)N1CCC(c2ccc(F)cc2)C1 (stereo unspecified) | inconclusive: 31.6 µM [activator, single point]
58 | S=c1[nH]nc(-c2cccc(Cl)c2)n1Cc1ccccc1 | inconclusive: 0.794 µM [activator, full curve, poor fit]
59 | O=C(N/N=C/c1ccc2c(c1)OCO2)c1ccccn1 | inconclusive: 13 µM [inhibitor, partial curve, poor fit]
60 | O=C(O)CCC(=O)N1CCN(S(=O)(=O)c2ccc3ccccc3c2)CC1 | inactive
61 | COC(=O)C1=C(N)OC2=C(C(=O)CCC2)C1c1cccs1 (stereo unspecified) | inactive
62 | CS(=O)(=O)N(CC(=O)N1CCCCCC1)c1cccc(F)c1 | inconclusive: 3.55 µM [inhibitor, single point]
63 | COc1cccc(C(C(=O)NC2CCCC2)N(Cc2ccco2)C(=O)c2ccco2)c1OC (stereo unspecified) | inactive
64 | O=C(Nc1ccccc1)N(CCCN1CCOCC1)Cc1cc2cc3c(cc2[nH]c1=O)OCCO3 | inactive
65 | Cc1cc(C)n2nc(C(=O)Nc3cccnc3)nc2n1 | inconclusive: 0.398 µM [activator, partial curve, poor fit]
66 | CC1=C(C(=O)OC2CCCCCC2)C(c2ccc(C)o2)C2=C(CCCC2=O)N1 (stereo unspecified) | inconclusive: 16.4 µM [inhibitor, partial curve, poor fit]
67 | Cc1ccc(Cl)cc1N1CCN(C(=O)CN2C(=O)COc3ccc(S(=O)(=O)N4CCC(C)CC4)cc32)CC1 | inactive
68 | CCOCCCNCc1ccc(OC)c(OC)c1 | inactive
69 | O=C(NNC(=O)c1cc(-c2ccccc2)nn1-c1ccccc1)c1ccccc1 | inconclusive: 15.8 µM [inhibitor, single point]
70 | O=C(OCC(=O)c1ccccc1Br)c1ccncc1 | inactive
71 | COc1ccc([C@@H]2C=C(c3ccc(C)cc3)Nc3ncnn32)cc1 | inconclusive: 22.4 µM [inhibitor, single point]

By substructure, the compounds so far with a furan ring, fused or not (nine)
Row | SMILES | Potency
2 | COC(=O)c1ccc(CN(C(C)=O)c2ccccc2)o1 | inactive
6 | COCCn1c(=O)[nH]c(=O)c2c1nc(-c1ccc(-c3ccc(Cl)cc3[N+](=O)[O-])o1)n2Cc1ccccc1 | inconclusive: 17.8 µM [inhibitor, single point]
18 | CCOCCCN(C)C1CCN(C(=O)c2oc3ccccc3c2NC(=O)c2cccc([N+](=O)[O-])c2)CC1 | inconclusive: 17.8 µM [inhibitor, single point]
36 | Cc1ccc(Cl)cc1N1CCN(Cc2nnnn2Cc2ccco2)CC1 | inactive
40 | Cc1cc(O)c(NC(=O)c2ccc(Br)o2)cc1C | inactive
54 | Nn1c(SCc2cccc3ccccc23)nnc1-c1ccco1 | inactive
56 | O=C(N/C(=C\c1cccc([N+](=O)[O-])c1)C(=O)N(CCO)CCO)c1ccco1 | inactive
63 | COc1cccc(C(C(=O)NC2CCCC2)N(Cc2ccco2)C(=O)c2ccco2)c1OC (stereo unspecified) | inactive
66 | CC1=C(C(=O)OC2CCCCCC2)C(c2ccc(C)o2)C2=C(CCCC2=O)N1 (stereo unspecified) | inconclusive: 16.4 µM [inhibitor, partial curve, poor fit]
